Source: US20240108662A1, “ENGINEERED CELLS FUNCTIONALIZED WITH IMMUNE CHECKPOINT MOLECULES AND USES THEREOF” (The University of North Carolina at Chapel Hill, priority 2020, published 2024)

Test: Proteomic analysis of native murine pancreata and decelled pancreatic ECM (Table 1)
Parameters: species or system mouse
Conditions: for Pancreatic ECM: Mean of log2(intensities): abundance of the listed protein in decelled pancreatic ECM; for Native pancreas tissue: Mean of log2(intensities): abundance of the listed protein in native murine pancreas tissue

| Molecule | Pancreatic ECM: Mean of log2(intensities) [a.u.] | Native pancreas tissue: Mean of log2(intensities) [a.u.] |
| --- | --- | --- |
| Q8CI11 (protein, UniProt Q8CI11 1-538, looked up, full-length) MKRPKLKKASKRMTCHKRYKIQKKVREHHRKLRKEAKKRGHKKPRKDPGVPNSAPFKEALLREAELRKQQLEELKQQQKLDRQKEQERKRKLEVSPGDEQSNVETREESDEPKRKKAKAGKQNPKKLHCQELKKVIEASDIVLEVLDARDPLGCRCPQIEEAVIQSGSKKLILVLNKSDLVPKENLENWLNYLNKELPTVVFKASTNLKNRKTFKIKKKKVVPFQSKICCGKEALWKLLGDFQQSCGKDIQVGVIGFPNVGKSSVINSLKQEWICNVGISMGLTRSMQIVPLDKQITIIDSPCLIISPCNSPTALALRSPASIEELRPLEAASAILSQADNEQVVLKYTVPEYKDSLHFFTKLAQRRGLHQKGGSPNVESAAKLVWSEWTGASLGYYCHPPASWNHSLHFNENIAAVMKKGFNLEELEKNNAHSIQVLKGPHLTNRILFRSSGLTNGILDEKDIVEESPRQTEDKQDADDQENGSGERNAEISDVAPVEETRELSPEQSTAGKPSDGSSALDRASQEDETYDFTTDYI | 24.78 | 21.75 |
| P57791 (protein, UniProt P57791 1-329, looked up, full-length) MAALGGDGLRLLSVSRPERQPESAALSGPGSGLCCWVSVFSCFSLACSYVGSLYVWKSELPRDHPAVIKRRSTSVLVVSSLSPLCVLLWRELTGIQPGTSLLTLMGFRLEGIFPAALLPLLLTMILFLGPLMQLSMDCPCDLTDGLKVVLAPRSWARCLTDMRWLRNQVIAPLTEELVFRACMLPMLAPCTGLGPAVFTCPLFFGVAHFHHIIEQLRFRQSSVGSIFVSAAFQFSYTAVFGAYTAFLFIRTGHLIGPVLCHSFCNYMGFPAVCAALEHPQKWPLLAGYALGVGLFLLLLQPLTDPKLYGSLPLCMLLERTGASETLLCS | 24.73 | 21.69 |
| P55937 (protein, UniProt P55937 1-1487, looked up, full-length) MDGASAKQDGLWESKSSSDVSSCPEASLETVGSLARLPDQQDTAQDASVEVNRGFKEEGSPDRSSQVAICQNGQIPDLQLSLDPTTSPVGPDASTGVDGFHDNLRNSQGTSAEGSVRKEALQSLRLSLPMQETQLCSTASSLPLEKEEQVRLQARKRLEEQLMQYRVKRHRERSSQPATKMKLFSTLDPELMLNPENLPRASTVAVTKEYSFLRTSVPRGPKVGSLGLLAHSKEKKNSKSSKIRSLADYRTEDPSDSGGLGSTADAVGSSLKQSRSSTSVVSEVSPSSETDNRVESASMTGDSVSEADGNESDSSSHSSLSARGACGVLGNVGMPGTAYMVDGQEISAEALGQFPSIKDVLQAAAAQHQDQNQEANGEVRSRRDSICSSVSMESSLAEPQDELLQILKDKRRLEGQVEALSLEASQALQEKAELQAQLAALSTRLQAQVEHSHSSQQKQDSLSSEVDTLKQSCWDLGRAMTDLQSMLEAKNASLASSNNDLQVAEEQYQRLMAKVEDMQRNILSKDNTVHDLRQQMTALQSQLQQVQLERTTLTSKLQASQAEITSLQHARQWYQQQLTLAQEARVRLQGEMAHIQVGQMTQAGLLEHLKLENVSLSHQLTETQHRSIKEKERIAVQLQSIEADMLDQEAAFVQIREAKTMVEEDLQRRLEEFEGEREQLQKVADAAASLEQQLEQVKLTLFQRDQQLAALQQEHLDVIKQLTSTQEALQAKGQSLDDLHTRYDELQARLEELQREADSREDAIHFLQNEKIVLEVALQSAKSDKEELDRGARRLEEDTEETSGLLEQLRQDLAVKSNQVEHLQQETATLRKQMQKVKEQFVQQKVMVEAYRRDATSKDQLINELKATKKRLDSEMKELRQELIKLQGEKKTVEVEHSRLQKDMSLVHQQMAELEGHLQSVQKERDEMEIHLQSLKFDKEQMIALTEANETLKKQIEELQQEAKKAITEQKQKMKRLGSDLTSAQKEMKTKHKAYENAVSILSRRLQEALASKEATDAELNQLRAQSTGGSSDPVLHEKIRALEVELQNVGQSKILLEKELQEVITMTSQELEESREKVLELEDELQESRGFRRKIKRLEESNKKLALELEHERGKLTGLGQSNAALREHNSILETALAKREADLVQLNLQVQAVLQRKEEEDRQMKQLVQALQVSLEKEKMEVNSLKEQMAAARIEAGHNRRHFKAATLELSEVKKELQAKEHLVQTLQAEVDELQIQDGKHSQEIAQFQTELAEARTQLQLLQKKLDEQMSQQPTGSQEMEDLKWELDQKEREIQSLKQQLDLTEQQGKKELEGTQQTLQTIKSELEMVQEDLSETQKDKFMLQAKVSELKNNMKTLLQQNQQLKLDLRRGAAKKKEPKGESNSSSPATPIKIPDCPVPASLLEELLRPPPAVSKEPLKNLNNCLQQLKQEMDSLQRQMEEHTITVHESLSSWAQVEAAPAEHAHPRGDTKLHNQNSVPRDGLGQ | 25.70 | 22.68 |
| Q91XB7 (protein, UniProt Q91XB7 1-293, looked up, full-length) MAYHSAYGVHGSKHRTRAAPDPPPLFDDTSGGYSSQLGGYPAPGADVAFSVNNLLGDPVANMAMAYGTSIASQGKDIVHKELHRFVSVNKLKYFFAVDTAYVAKKLGLLVFPYTHQNWKMQYSHDVPLPPRKDLNAPDLYIPTMAFITYVLLAGMALGIQQRFSPEVLGLCASTALVWVFMEVLALLLGLYLATVRSELSTFHLLAYSGYKYVGMILSVLTGLLFGSDGYYVALAWTSSALMYFIVRSLRTAASGPDSMGGPAPRQRLQLYLTLGAAAFQPLIIYWLTFHLVR | 25.24 | 22.23 |
| Q9ERG0 (protein, UniProt Q9ERG0 1-753, looked up, full-length) MESTPFNRRQWTSLSLRVTAKELSLVNKNKSSAIVEIFSKYQKAAEEANMERKKNNPESLPQHFRRGTLSVLKKKWENPVAGAEFHTDSLPNSSSEGGHTADYPPAEVTDKPAPGVRADREEHTQPKPRFGSRPEAVIQSRYPRSENSHDFKAQATESQKMENCLGDSRHEAEKPETSENTETSGKIEKYNVPLNRLKMMFEKGEHNQTKSLWTQSRNAGGRRLSENNCSLDDWEIGAGHLSSSAFNSEKNESKRNLELPRLSETSIKDRMAKYQAAVSKQSSPASYTNELKTSESKTHKWEQKENVPPGPEACSVHQEGSKVSTTENSLVALSVPAEDDTCNSQVKSEAQQPMHPKPLSPDARTSSLPESSPSKTAKKFQAPAKESCVECQKTVYPMERLLANQQVFHISCFRCSYCNNKLSLGTYASLHGRIYCKPHFNQLFKSKGNYDEGFGHKQHKDLWASKSDNEETLGRPAQPPNAGESPHSPGVEDAPIAKVGVLAASMEAKASSQREREDKPAETKKLRIAWPPPAELGGSGSALEEGIKVSKPKWPPEDDVCKTEAPEDVDLDLKKLRRSSSLKERSRPFTVAASFRTSSIKSPKASSPSLRKGWSESEQSEEFGGGIATMERKQTENARPSGEKENVGKSRWQGEEVPRSKDRSSFELESENFMENGANIAEDDNHVHAQQSPLEPEAPGWSGFVDTTAAKEFTTQNQKSQDVGFWEGEVVRELSVEEQIKRNRYYDEDEDEE | 24.71 | 21.70 |
| Q8BHD7 (protein, UniProt Q8BHD7 1-523, looked up, full-length) MNSSTSAGVYANGNDNKKFKGDRPPCSPSRVLHLRKIPCDVTEAEVISLGLPFGKVTNLLMLKGKSQAFLEMASEEAAVTMINYYTPVTPHLRSQPVYIQYSNHRELKTDNLPNQARAQAALQAVSAVQSGNLSLPGATANEGTLLPGQSPVLRIIIENLFYPVTLEVLHQIFSKFGTVLKIITFTKNNQFQALLQYADPVNAQYAKMALDGQNIYNACCTLRIDFSKLTSLNVKYNNDKSRDFTRLDLPTGDGQPSLEPPMAAAFGAPGIMSSPYAGAAGFAPAIAFPQAAGLSVPAVPGALGPLTLTSSAVSGRMAIPGASGMPGNSVLLVTNLNPDFITPHGLFILFGVYGDVHRVKIMFNKKENALVQMADASQAQLAMNHLSGQRLYGKVLRATLSKHQAVQLPREGQEDQGLTKDFSNSPLHRFKKPGSKNFQNIFPPSATLHLSNIPPSVTMDDLKNLFTEAGCSVKAFKFFQKDRKMALIQLGSVEEAIQALIELHNHDLGENHHLRVSFSKSTI | 25.41 | 22.40 |
| O54825 (protein, UniProt O54825 1-436, looked up, full-length) MPKFKVTRGASNREKHAPLAEQILAGNAVRAGTREKRRGREVEEEEEYVGPRLSRRILQQARQQQEELETDHGAGDRSAPPRERATRLGPGLPQDGSDEEDEEWPTLEKAAKMAGVDHQAEVIVDPEDERAIEMFMNKNPPVRRTLADIIMEKLTEKQTEVETVMSEVSGFPMPQLDPRVLEVYRGVREVLCKYRSGKLPKAFKVIPALSNWEQILYVTEPEAWTAAAMYQATRIFASNLKERMAQRFYNLVLLPRVRDDIAEYKRLNFHLYMALKKALFKPGAWFKGILIPLCESGTCTLREAIIVGSIITKCSIPVLHSSAAMLKIAEMEYSGANSIFLRLLLDKKYALPYRVLDALVFHFLAFRTEKRQLPVLWHQCLLTLAQRYKADLATEQKEALLELLRLQPHPQLSPEIRRELQSAVPRDVEDGGVTME | 24.23 | 21.26 |
